{"source": "PubChem BioAssay AID1347423", "about": "(Functional Genomics Laboratory (NCATS/FGL), 2020)", "note": "Hit rate of the full screen: of about 52,000 sequences, about 210 (0.4%) were called active.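 Rule for the calls: active = gene whose silencing raises cell survival under the drug, median off-target-corrected z-score across its silencing RNAs 2 or more; inactive = the rest.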 Some of the results follow.", "data": [{"experiment": "Resistance to Poly (ADP-Ribose) Polymerase inhibitor: Gene Identification via Genome-wide siRNA Screen", "conditions": "mouse BRCA2 R2336H ES cells, olaparib, CellTiter-Glo viability; hits give high values", "summary_of_the_method": "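Genome-wide siRNA screen (3 siRNAs/gene, 20 nM) in mouse ES cells carrying hypomorphic BRCA2 R2336H; olaparib 500 nM added 48 h post-transfection, CellTiter-Glo viability 72 h later. Normalized to plate-median negative control; MAD z-scores, gene median, seed-adjusted.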", "values": [{"sequence": "GCCAAAAUCAUGGUGGAGATT against Mrgpra1", "z-score": "inactive: -0.159"}, {"sequence": "GGAGAGUUCUGUUUAGUUATT against Cul5", "z-score": "inactive: 0.625"}, {"sequence": "GGAAAUGAAGGAACAUUACTT against Csmd1", "z-score": "inactive: 1.57"}, {"sequence": "GGGAGGAUGUGACCUUUGATT against Tbc1d13", "z-score": "inactive: -2.69"}, {"sequence": "GCAAAUAUAAAACUAGAGCTT against Zfp62", "z-score": "inactive: 0.399"}, {"sequence": "GGCAAAUGGGUUUUCUGCATT against Jam2", "z-score": "inactive: -0.881"}, {"sequence": "GGAAAGUGCCAUGAAGACCTT against Dbi", "z-score": "inactive: -0.00985"}, {"sequence": "GGUACGCCCUCAUAUGUCATT against Lnp", "z-score": "inactive: -1.1"}, {"sequence": "GGUAAUGGGACUUGGUAGGTT against Olfr1338", "z-score": "inactive: -0.676"}, {"sequence": "CGUAGAAAUCCCUCAUUUCTT against Olfr857", "z-score": "inactive: 0.227"}, {"sequence": "GGAAAUAUCCAAGAAUCCCTT against Bbs4", "z-score": "inactive: 0.274"}, {"sequence": "GGCUGUAUUCAUGACAACCTT against Caskin1", "z-score": "inactive: 1.43"}, {"sequence": "GGACAUCACGAGCAUUUCATT against Faim2", "z-score": "inactive: -1.79"}, {"sequence": "CGAACAAGCCAUGUUUACATT against 9130002C22Rik", "z-score": "inactive: 1.94"}, {"sequence": "GGUUAAAUGUCGUUUAUACTT against Rasa3", "z-score": "inactive: 1.21"}, {"sequence": "GCGUGGAUUACAUUUCUCUTT against Depdc1a", "z-score": "inactive: 0.337"}, {"sequence": "GGAGAAACAAAACUUCUGGTT against Arcp", "z-score": "inactive: 1.46"}, {"sequence": "GGUCCAGUUGGAGAUGACATT against Ube2d3", "z-score": "inactive: -2.84"}, {"sequence": "GCCUCCUGUCAAAGGUUCATT against Clm6", "z-score": "inactive: 0.143"}, {"sequence": "GGAGGGUGAAGAGAAUGGUTT against 1300003K24Rik", "z-score": "inactive: -0.791"}, {"sequence": "CCUAAGCCCUCUAAGGCAATT against Pik3r2", "z-score": "inactive: 3.1"}, {"sequence": "GGGAUUCAGACAUGUGCUGTT against 4930503E14Rik", "z-score": "inactive: 1.63"}, {"sequence": "CCAGACACAUAGGACAAAATT against Slco3a1", "z-score": "inactive: -0.0388"}, {"sequence": "CCAGAUGUGAAACAUGACATT against Upk3a", "z-score": "inactive: 0.877"}, {"sequence": "CGAGCGAUUCCCAUACAAUTT against BC034834", "z-score": "inactive: 0.438"}, {"sequence": "GCACAUUUUACCCAAGGCCTT against Gpr23", "z-score": "inactive: 0.588"}, {"sequence": "GGCCAGAACUGUUCCAAUUTT against Cilp", "z-score": "inactive: 0.954"}, {"sequence": "GGAUCUCUUAGGUAUCUUATT against 4921520L01Rik", "z-score": "inactive: -0.486"}, {"sequence": "GCGACUGUUCGGUGGUACATT against MNCb-4137", "z-score": "inactive: 1.45"}, {"sequence": "CCCACUCUUUGUGUACUGATT against Olfr262", "z-score": "inactive: 0.561"}, {"sequence": "CCUAGCUACAGAACUGUGCTT against Snapap", "z-score": "inactive: 0.369"}, {"sequence": "GGGAAAGGAAAGAAGAAGATT against Srp19", "z-score": "inactive: -1.1"}, {"sequence": "GGAUUACAACAACUAUGGCTT against Pla2g1b", "z-score": "inactive: -0.124"}, {"sequence": "GGGAAAAAGAUGCAAGUAUTT against Catnbip1", "z-score": "inactive: -0.191"}, {"sequence": "GGGUUUAUUACAAUCAAACTT against Liph", "z-score": "inactive: -0.757"}, {"sequence": "GGGCUGAUCUGGAUCAAUATT against Irf1", "z-score": "inactive: -0.392"}, {"sequence": "CGAUCCAAUCAAAACUAGUTT against Ddx41", "z-score": "inactive: -0.578"}, {"sequence": "GAAAAAUCAUGAAGCCAUATT against Olfr203", "z-score": "inactive: 0.192"}, {"sequence": "GCGGCUAACUGAAUACAUGTT against G430090F17Rik", "z-score": "inactive: -1.49"}, {"sequence": "GGAUGACCUUUCAUUCAAATT against 5830418K08Rik", "z-score": "inactive: 1.75"}, {"sequence": "GGAGGUUAAAUUUUUCAGATT against MGC36320", "z-score": "inactive: 0.912"}, {"sequence": "GGCUUUAUAUGAAACUCCUTT against Acrv1", "z-score": "inactive: -0.274"}, {"sequence": "GGACUGAACCCAAAUGCCUTT against 5830457O10Rik", "z-score": "inactive: -0.00905"}, {"sequence": "GGAACAGAUAACAUUAUGGTT against Cpeb3", "z-score": "inactive: 0.00638"}, {"sequence": "CGCAAGAGAGUGGAUUUCUTT against Cpb1", "z-score": "inactive: 0.938"}, {"sequence": "CCAACGGCAUAAAUCCUGATT against 1810044A24Rik", "z-score": "inactive: -1.19"}, {"sequence": "GCGUACGUGAUCUCAGUCUTT against Ttll1", "z-score": "inactive: -1.33"}, {"sequence": "GGUGCUCAAUAAAUGUAAATT against Cd151", "z-score": "inactive: -0.471"}, {"sequence": "GCCGUACAGUAAGCACUACTT against Smyd2", "z-score": "inactive: 0.135"}, {"sequence": "GGGCUUUGCUGUCUAUGCATT against Dmwd", "z-score": "inactive: 0.54"}, {"sequence": "GCCACAUUCUUCUCAACCUTT against Tas2r106", "z-score": "inactive: -0.641"}, {"sequence": "GGAAACUGGACCAGACUAUTT against Smarcd1", "z-score": "inactive: -1.5"}, {"sequence": "GGGUUGCCACAUGUUAUAUTT against Smad2", "z-score": "inactive: -0.868"}, {"sequence": "GGAAAAGUGUACGUGAUCATT against Prkce", "z-score": "inactive: 1.08"}, {"sequence": "GCAUGAUCCUUCAUAACAUTT against 4930511I11Rik", "z-score": "inactive: 0.746"}, {"sequence": "CCUGUCGACGGAAUUUUAGTT against Zfp287", "z-score": "inactive: 1.15"}, {"sequence": "GGAUGAAGACAUGCUCACATT against Pcdhb6", "z-score": "inactive: -1.53"}, {"sequence": "GGGAAUGAAAUGUUCUUCGTT against Ttl", "z-score": "inactive: 0.518"}, {"sequence": "GCUGUGUGGACAAAGUCUGTT against 1810046I24Rik", "z-score": "inactive: -0.949"}, {"sequence": "GGCUCUCAAGAAGAGCAAGTT against BC018462", "z-score": "inactive: 1.47"}, {"sequence": "GGACAAGAUGCGAAAAGCATT against Tbrg4", "z-score": "inactive: -1.42"}, {"sequence": "GCCCACCAUUCAGAUAGAGTT against Tacstd2", "z-score": "inactive: 1.21"}, {"sequence": "CCUUUGACUUCACUAUUGATT against Map4k2", "z-score": "inactive: -0.0815"}, {"sequence": "GCUAUGUGUUGAUUUAAAGTT against Pdk1", "z-score": "inactive: 0.531"}, {"sequence": "GCUCGUCUAUGCUAUUUCUTT against Fath", "z-score": "active: 0.81"}, {"sequence": "CAAAUCAAGAGCCUCUAUGTT against Acsl5", "z-score": "inactive: 0.447"}, {"sequence": "GGAUGUUCCAUAUGUGCUGTT against Cdgap", "z-score": "inactive: 0.145"}]}]}
